Assay results from PMC8104946.
These are yes or no findings as the source states them, for the method shown. Binding seen in cells or lysates may run through a third protein. A yes stands for co-enrichment or nearness to the bait. Other partners may have been found. Where a sequence is shown, tags or fusion partners need not be part of it.

Protein sequences, listed by entry. Tags and fused reporters are not part of them. Lines headed by an entry give the natural chain unless they say otherwise; changes in a name come on top.
UniProt Q9VX62: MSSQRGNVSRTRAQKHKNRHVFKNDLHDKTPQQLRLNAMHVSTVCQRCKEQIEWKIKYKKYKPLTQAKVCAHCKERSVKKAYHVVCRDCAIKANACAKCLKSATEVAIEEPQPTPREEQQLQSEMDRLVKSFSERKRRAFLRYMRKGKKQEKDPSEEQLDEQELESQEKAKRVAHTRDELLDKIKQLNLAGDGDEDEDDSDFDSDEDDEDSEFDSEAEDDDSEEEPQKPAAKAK
UniProt Q9VY91: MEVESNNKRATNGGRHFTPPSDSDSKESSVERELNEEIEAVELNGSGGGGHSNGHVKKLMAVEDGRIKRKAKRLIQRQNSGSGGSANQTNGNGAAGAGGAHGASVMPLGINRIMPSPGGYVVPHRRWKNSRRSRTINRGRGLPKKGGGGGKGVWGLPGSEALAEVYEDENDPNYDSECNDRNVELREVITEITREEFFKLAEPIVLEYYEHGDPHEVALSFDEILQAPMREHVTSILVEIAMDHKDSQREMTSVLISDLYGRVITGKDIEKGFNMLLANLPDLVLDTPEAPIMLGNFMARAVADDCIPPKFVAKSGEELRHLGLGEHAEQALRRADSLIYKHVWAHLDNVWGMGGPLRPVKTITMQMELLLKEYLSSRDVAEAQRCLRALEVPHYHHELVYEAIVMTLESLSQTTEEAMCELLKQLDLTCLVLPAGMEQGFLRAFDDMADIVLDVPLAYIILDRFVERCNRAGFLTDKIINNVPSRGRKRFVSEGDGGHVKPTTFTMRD
UniProt Q07152: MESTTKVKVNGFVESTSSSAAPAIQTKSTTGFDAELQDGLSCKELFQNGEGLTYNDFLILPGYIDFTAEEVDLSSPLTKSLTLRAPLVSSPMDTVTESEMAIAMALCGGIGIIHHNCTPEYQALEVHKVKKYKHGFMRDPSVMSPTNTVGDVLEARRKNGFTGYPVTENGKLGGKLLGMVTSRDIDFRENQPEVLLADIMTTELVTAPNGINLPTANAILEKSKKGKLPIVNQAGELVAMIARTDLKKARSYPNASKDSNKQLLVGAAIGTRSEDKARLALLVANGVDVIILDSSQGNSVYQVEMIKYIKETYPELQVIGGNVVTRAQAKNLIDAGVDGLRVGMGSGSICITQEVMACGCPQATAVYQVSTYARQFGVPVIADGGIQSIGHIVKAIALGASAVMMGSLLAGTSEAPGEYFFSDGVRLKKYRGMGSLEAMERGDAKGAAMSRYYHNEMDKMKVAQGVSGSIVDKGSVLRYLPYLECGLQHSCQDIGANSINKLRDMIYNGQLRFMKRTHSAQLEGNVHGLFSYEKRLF
UniProt Q9VCK0: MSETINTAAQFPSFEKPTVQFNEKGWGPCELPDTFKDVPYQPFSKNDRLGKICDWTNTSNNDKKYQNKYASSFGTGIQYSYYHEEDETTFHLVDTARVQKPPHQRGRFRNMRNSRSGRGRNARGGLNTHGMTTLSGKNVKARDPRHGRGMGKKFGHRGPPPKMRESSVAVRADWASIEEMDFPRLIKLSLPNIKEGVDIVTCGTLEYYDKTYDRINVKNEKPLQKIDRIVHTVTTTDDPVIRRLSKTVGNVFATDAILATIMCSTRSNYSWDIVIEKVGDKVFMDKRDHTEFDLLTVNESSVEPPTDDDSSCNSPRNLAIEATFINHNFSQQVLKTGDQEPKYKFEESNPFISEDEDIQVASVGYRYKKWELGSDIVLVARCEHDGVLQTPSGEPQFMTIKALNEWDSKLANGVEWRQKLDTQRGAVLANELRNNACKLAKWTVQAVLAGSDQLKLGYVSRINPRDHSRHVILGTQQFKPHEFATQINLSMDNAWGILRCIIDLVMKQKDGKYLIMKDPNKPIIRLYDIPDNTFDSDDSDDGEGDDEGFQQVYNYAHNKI

T1: CTPS-TurboID-V5 (wild-type Drosophila CTP synthase fused to TurboID and V5) (Drosophila) (UniProt Q9VUL1)
T1 sequence: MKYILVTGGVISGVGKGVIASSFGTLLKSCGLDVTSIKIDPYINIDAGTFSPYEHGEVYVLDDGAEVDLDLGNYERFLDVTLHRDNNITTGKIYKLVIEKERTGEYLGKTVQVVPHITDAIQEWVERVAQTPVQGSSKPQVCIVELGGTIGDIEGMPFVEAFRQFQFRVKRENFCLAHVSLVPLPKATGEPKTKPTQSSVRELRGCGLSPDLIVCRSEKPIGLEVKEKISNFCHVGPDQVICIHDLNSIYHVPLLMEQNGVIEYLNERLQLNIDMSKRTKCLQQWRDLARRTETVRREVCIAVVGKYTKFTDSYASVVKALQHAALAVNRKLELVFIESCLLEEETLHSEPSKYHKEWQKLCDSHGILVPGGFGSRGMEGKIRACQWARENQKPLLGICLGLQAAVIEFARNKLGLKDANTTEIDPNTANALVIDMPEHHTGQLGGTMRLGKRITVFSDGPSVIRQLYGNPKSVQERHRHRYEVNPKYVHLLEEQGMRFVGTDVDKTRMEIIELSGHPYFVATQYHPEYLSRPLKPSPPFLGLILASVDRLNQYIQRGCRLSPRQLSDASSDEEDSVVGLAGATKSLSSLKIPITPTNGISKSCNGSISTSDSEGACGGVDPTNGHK

B1: eIF3-S10, subunit of the eukaryotic translation initiation factor 3 (eIF3) (protein, UniProt Q9VN25 1-1140)
chain: MARYTQRPENALKRANEFIEVGKPLRALDTLQEVFRNKRWNYAYSETVIEPLMFKYLYLCVELKKSHIAKEGLFQYRNMFQLVNVNSLENVIRGYLKMAEEHTEAAQAQSSAAVAVLELDDLDNIATPESILMSAVCGEDAQDRSDRTILLPWVKFLWESYCQCLELLRVNTHCEALYHDIARMAFQFCLKYNRKSEFRRLCDKLRKHLEDICKSSNQTTGVSINKVETQQLCLDTRLYLLDSAIQMELWQEAYKAIEDIHGLMALSKKTPVPKTMANYYQKLAMVFSKAGNQLFHAAALLKLFQLTRELKKNLTKDDLQRMAAHVLLATLSIPLPSAHPEFDRFIEADKSPLEKAQKLAVLLGLPQPPTRVSLIREVVRLNVPQLVSEDFRNLYNWLEVDFNPLNLCKRIQSIVDFIENGPENALLTPYIQSLKDVTIMRLIRQISQVYESIKFQRLLQLASFCNIFELEKLLVESVRHNDMQIRIDHQKNSIYFGTDLTESQREYRPDGPALQSMPSEQIRSQLVNMSTVLTRAVSIVYPNRERDQRAKLRNQMVNHYHEIKDREHQRILQRQKIIEDRKEYIEKQNNAREEEEARRQEEESRKAKLAEQKRLEQEQEERERKRHQNEIQAIREKSLKEKVQQISQTAHGKKMLSKLDEEGIKKLDAEQIAKRESEELQREAKELQSKLKSQEKKIDYFERAKRLEEIPLFEKYLAEKQVKDKEFWEATEKTRIENAIAERKDAVAQQERLKRMYPDRDEFLEALKKERASLYVEKLKKFEAALEAERKKRLADRIIRRREERRQAFLREKEEERLRKEEEIRLAQAAEERAAAEARRLEREAEDEKRRAQYEKQRAKEEEAERKIKEDRDRLSRELASERERTEKDRDTWRPRGGDRPSASNGGSSEWRRAAPAASERNDRGGERIERGGERIERGGERLERGGERIERGGDRDRKDNEGADSSWRVRREPDSQRAAAPKDSGAPQSRDDKWRRGGERDRDFRIDGARRDRDDGPRRDRDDGPRRDRDDERGGFRRADGARRTDEPQRETGGNWRDAPRHADRETRRPAERRDRDVRETRGDQRGSAPKEAASGGVGGNWRTAPATREEKPAAKRDQAQEKENKAGDDGEWTSVKRR
B2: eIF3-S8, subunit of the eukaryotic translation initiation factor 3 (eIF3) (protein, UniProt A1ZAX1 1-910)
chain: MSRFFANGSESESESSEEEIQATNFNKASAFQFSDDEEEVKRVVRSTKEKRYENLTSIIKTIRNHKKIKDIPNTLSSFEDLTRAYQKALPVISKEENGITPRFYIRCLAELEDFINEVWEDREGRKNLSKNNSKSLGTLRQKVRKYIKDFEDDLSRFREAPDQESEAEDEVVALESDGGDAGDDSDAGVKPTEAVPKAVKSAPAKAAPADDDDSDDSIDWDSDSESETESSDDENQYQNMRERFLKRTTEKEEKDDDKRKDKRKEQKTKIRKRAEDDEDGEWETVVKGHVVEKPKMFEKDAEIDVPLVLAKLLEIMSARGKKRTDRRLQIDLLFELRDISDQHNLGTAVSVKIHFNIISAIYDYNQKISEPMKLEHWALLLEVMQSMMKLLLANADIIMSESVAEEHEEYATSPFYVRGCPLAAVERLDDEFVKLLKECDPHSNDYVSRLKDEVNVVKTIELVLQYFERSGTNNERCRIYLRKIEHLYYKFDPEVLKKKRGELPATTSTSVDVMDKLCKFIYAKDDTDRIRTRAILAHIYHHAMHDNWFQARDLVLMSHLQDNIDAADPATRILYNRMMANLGLCAFRQGNVKDAHHCLVDLMVTGKPKELLAQGLLPQRQHERSAEQEKIEKQRQMPFHMHINLELLECVYLVSAMLLEIPYIAAHEFDARRRMISKTFYQQLRSSERQSLVGPPESMREHVVAAAKAMRCGNWQACANFIVNKKMNTKVWDLFYESDRVREMLTKFIKEESLRTYLFTYSNVYTSISIPSLAQMYELPVPKVHSIISKMIINEELMASLDDPSETVGMHRSEPSRLQALAMQFVDKVTNLVDVNEKVFDMKQGNFFQRGNMGNRGDRGYNRNQNNQGGNWLGQRRDRNNRNRNQRGHHKNNQDRQQQQQQQVQTIDEE
B3: Awd (abnormal wing discs), nucleotide diphosphate kinase (enzyme, UniProt P08879 1-153)
chain: MAANKERTFIMVKPDGVQRGLVGKIIERFEQKGFKLVALKFTWASKELLEKHYADLSARPFFPGLVNYMNSGPVVPMVWEGLNVVKTGRQMLGATNPADSLPGTIRGDFCIQVGRNIIHGSDAVESAEKEIALWFNEKELVTWTPAAKDWIYE
B4: eIF-3p40, subunit of the eukaryotic translation initiation factor 3 (eIF3) (protein, UniProt Q9U9Q4 1-338)
chain: MANRANRHAARTEDSDNTINYVQCDGLAVMKMVKHCHEESSNMDLAQGALLGLVVDKCLEITNCFPFPKSGDETMDEEMYQLTVMRRLRRVNVDHLHVGWYQSSDVGNSLSMALLESQYHYQTSIEESVVVVYDTQKSSRGFLCLKAYRLTPQAIQMYKDGDFTPEAFRTLKVGYENLFAEIPIVIKNSPLTNIMMSELNELLPEDKGHNFLDLGTATVLENQMRSLIERVDELYQEAVRYNKYQQVVFKQDTEKHRALAKLAAENAVRTSKGEPTVPEEEVIKQFRPMTAPNRLTATITSGQINTHAQHIAQFCSQSLAKLFITESLQIAKEAKETK
B5: Catsup (endogenous) (protein, UniProt Q9V3A4 1-449)
chain: MAKQVADYQCSKLQLYQKLALVVILGAVLFSLPALCAGQGNPSFKYSREANENFDPQKAPRAEHHHHHDHDHDHGHHHHGHDHDHDHDHGHDHGHHHHGHDHDHDHDHGHHHHGHDERHTKAKPDLDMSTIWLHSIGSTLLISAAPFVLLYIIPLDNSEAMKPRLKVLLAFASGGLLGDAFLHLIPHATHPHSHGEHGHDHGHDHHHHHDGEEHEHGHSHDMSIGLWVLGGIIAFLSVEKLVRILKGGHGGHGHSHGAPKPKPVPAKKKSSDKEDSGDGDKPAKPAKIKSKKPEAEPEGEVEISGYLNLAADFAHNFTDGLAIGASYLAGNSIGIVTTITILLHEVPHEIGDFAILIKSGCSRRKAMLLQLVTALGALAGTALALLGAGGGDGSAPWVLPFTAGGFIYIATVSVLPELLEESTKLKQSLKEIFALLTGVALMIVIAKFE

Biological target: T1, CTPS-TurboID-V5 (wild-type Drosophila CTP synthase fused to TurboID and V5) (Drosophila)
Test: proximity labelling; TurboID fused to CTPS, expressed by da-GAL4; about 60 ovaries from 14-day-old flies on 100 uM biotin food; biotinylated proteins captured on streptavidin magnetic beads, on-bead trypsin digestion, MS (Orbitrap Fusion, LFQ); compared with CTPS H355A-TurboID (disrupted cytoophidium); three replicates

| binding | Molecule |
| --- | --- |
| binds | B1 |
| binds | B2 |
| binds | B3 |
| binds | B4 |
| binds | B5 |

Biological target: T1, CTPS-TurboID-V5 (wild-type Drosophila CTP synthase fused to TurboID and V5) (Drosophila)
Test: as above
Remark: another data set of the same source

| binding | Molecule |
| --- | --- |
| binds | CG6340 (Drosophila (endogenous in fly ovaries)) |
| binds | CG8675 (from UniProt Q9VX62) |
| binds | Pdcd4 (endogenous) (from UniProt Q9VY91) |
| binds | Ras (Inosine monophosphate dehydrogenase) (from UniProt Q07152 1-537) (enzyme) |
| binds | Ytr (yantar) (Drosophila (endogenous in fly ovaries)) |
| binds | eIF-3p66, subunit of the eukaryotic translation initiation factor 3 (eIF3) (from UniProt Q9VCK0 1-560) |
